This is one part of the list.
Biological target: OsWRKY34 (Oryza sativa, UniProt Q0JBA9 1-250)
Assay: protein-binding microarray (RPBM); PBS, 2% BSA, 51.3 ng/ul salmon testes DNA, 50 uM zinc acetate, 200 nM TF, 25 C, 1 h; high values mean tight binding
Conditions: protein: recombinant; tags: N-terminal polyhistidine and DsRed monomer fusion (pET32a); label: CyDye5-dUTP incorporated in the synthesized complementary strand; 3' TTTTT single-stranded linker to array surface; dsDNA, one strand shown
Outline: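 An Axon 4000B scanner gave the binding signal as per-feature fluorescence intensity in arbitrary units. This followed washing of a custom Agilent array that had been incubated for 1 h at 25 °C with 200 nM protein in PBS, 2% BSA, salmon testes DNA and 50 µM zinc acetate. The proteins were transcription factors fused at the N-terminus to polyhistidine and DsRed, expressed in E. coli BL21-CodonPlus and purified on Ni–NTA.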

By UniProt entry, the sequences of proteins in these tests, tags left out.
UniProt Q0JBA9, entry or part of it: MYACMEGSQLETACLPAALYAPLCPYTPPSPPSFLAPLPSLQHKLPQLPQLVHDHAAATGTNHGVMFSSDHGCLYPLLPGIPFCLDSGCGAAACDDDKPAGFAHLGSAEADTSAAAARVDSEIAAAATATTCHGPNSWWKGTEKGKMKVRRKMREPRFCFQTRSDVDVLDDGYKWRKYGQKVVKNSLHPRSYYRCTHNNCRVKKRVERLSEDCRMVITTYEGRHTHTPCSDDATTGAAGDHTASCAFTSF

Row | Sequence | binding signal
1 | GCTGCCTATTCCATACAAATTTCGTAGGTTCATTTCCAACCGGAGTCACCTAGTGCAG | 10000 fluorescence intensity (a.u.)
2 | TCCCAAGTCCCAACTGCCAGCTCTGCCCACTTCTCGAAGCCGGAGTCACCTAGTGCAG | 8600 fluorescence intensity (a.u.)
3 | TTGGGCTCGTTTTGTGTTAATGTGGGCATATGTGGGTGATCGGAGTCACCTAGTGCAG | 8130 fluorescence intensity (a.u.)
4 | CAAATCTGTAGTCCGCTTTCTTCTCTCTCTTCTCTCTTCTCGGAGTCACCTAGTGCAG | 8060 fluorescence intensity (a.u.)
5 | GACTTCTATCGTGACTTCGATACATTTTGATCTTGTTTCTCGGAGTCACCTAGTGCAG | 9220 fluorescence intensity (a.u.)
6 | GCTTTTCATTTGTCCTAGTGCTGGTTGGTAGGTACTTGCTCGGAGTCACCTAGTGCAG | 11100 fluorescence intensity (a.u.)
7 | AAGTTTAATTTGTTATTTTTATTTTTATACGTCATCTTTTCGGAGTCACCTAGTGCAG | 9760 fluorescence intensity (a.u.)
8 | TGTTGTATGCTTGTATGGGTTAAATATGTAATTATTACTACGGAGTCACCTAGTGCAG | 8040 fluorescence intensity (a.u.)
9 | CTTCTCAAGTTCCAACCTTTGCGCTTTCTTATTATCAAAGCGGAGTCACCTAGTGCAG | 8550 fluorescence intensity (a.u.)
10 | TATTCTGGTTTTGTGCGTTGCAACAAGTGTTCTTGGATGTCGGAGTCACCTAGTGCAG | 8500 fluorescence intensity (a.u.)
11 | GGGGTTATGGTGGATTTGGTGCTTTGGGGCATTATGTTTACGGAGTCACCTAGTGCAG | 13800 fluorescence intensity (a.u.)
12 | CATTCTATTCCATTTTCAGTCGCATAGGTCTATAAATAAACGGAGTCACCTAGTGCAG | 8780 fluorescence intensity (a.u.)
13 | GAGTCGGGTTGTTGTTCATGACCACCGGCAGCCACCGTACCGGAGTCACCTAGTGCAG | 9030 fluorescence intensity (a.u.)
14 | GCTTCTCTGGTAATAGATTCAATAATGGCTTTCGTTGTCCCGGAGTCACCTAGTGCAG | 11400 fluorescence intensity (a.u.)
15 | GCCTTTTCATTGGCCACCTATGGCTAATTGTGCAGAAATCCGGAGTCACCTAGTGCAG | 8410 fluorescence intensity (a.u.)
16 | CCGCGGGTGGGGAGATTTGACCGGCGTTGACTCCGGGATGCGGAGTCACCTAGTGCAG | 14300 fluorescence intensity (a.u.)
17 | GCCAAGTTTCTTGCCCTCAGCGTGCTCGTTCTTTGTTGATCGGAGTCACCTAGTGCAG | 9030 fluorescence intensity (a.u.)
18 | CTATGACAGCATTACATTTGAAAACTTTGCTTTTGTAACTCGGAGTCACCTAGTGCAG | 8330 fluorescence intensity (a.u.)
19 | ATGGTTTTTCAGGGTTGGATTTATGTGTGGTCAGTTTAAACGGAGTCACCTAGTGCAG | 12000 fluorescence intensity (a.u.)
20 | TCAGACAAGTATTTTAACCGTATTCGTTTCATGTCTATATCGGAGTCACCTAGTGCAG | 9480 fluorescence intensity (a.u.)
21 | AAGACTCCTTTGACTTAAATTACTGGGCGGATTAGGATTACGGAGTCACCTAGTGCAG | 8180 fluorescence intensity (a.u.)
22 | AAGTGTGGAGGTGGCATATCTTTATCCATTTGGTTGTTATCGGAGTCACCTAGTGCAG | 10500 fluorescence intensity (a.u.)
23 | GTTTGACCATTCGTTTTATTCAATTTTTTTTAGTAAATATCGGAGTCACCTAGTGCAG | 9640 fluorescence intensity (a.u.)
24 | TTTCTAGTCAAACTTCATAGGTTGACTAAATTTATGAAAACGGAGTCACCTAGTGCAG | 11800 fluorescence intensity (a.u.)
25 | GAAATTCTGTCCAGATACGTTGTGACTAGGACATGTCACACGGAGTCACCTAGTGCAG | 8740 fluorescence intensity (a.u.)
26 | TAATCTTAAAAGCCATTATTACTCTCTTACTCGCTTTCATCGGAGTCACCTAGTGCAG | 9160 fluorescence intensity (a.u.)
27 | CTACGAGCTTGAGCTAGATCCTGAGGCGGGGTAGTATTCCCGGAGTCACCTAGTGCAG | 8980 fluorescence intensity (a.u.)

A second format for part of the listing above:

| Row | Sequence | binding signal |
| --- | --- | --- |
| 4 | CAAATCTGTAGTCCGCTTTCTTCTCTCTCTTCTCTCTTCTCGGAGTCACCTAGTGCAG | 8060 fluorescence intensity (a.u.) |
| 22 | AAGTGTGGAGGTGGCATATCTTTATCCATTTGGTTGTTATCGGAGTCACCTAGTGCAG | 10500 fluorescence intensity (a.u.) |

The list continues:

Row | Sequence | binding signal
28 | TTCAACTGTTTTGTCCAAACTATAAATTTGCAGCAACTTTCGGAGTCACCTAGTGCAG | 10300 fluorescence intensity (a.u.)
29 | TACAGCAAATGTTACAATCCTGGGTTTTATTTTCCCATTCCGGAGTCACCTAGTGCAG | 8070 fluorescence intensity (a.u.)
30 | CTGTAGCCCATTTTCCTTTTTTTCTCTTCTTTTTTCTTCTCGGAGTCACCTAGTGCAG | 10800 fluorescence intensity (a.u.)
31 | ACCCACTGCCGGTCATCCACCGTCCACGGCCGTCCCTTTACGGAGTCACCTAGTGCAG | 8100 fluorescence intensity (a.u.)
32 | TGTTACCTCCCCTGCTTCTCTTCCGCCCGTTTCATGGACTCGGAGTCACCTAGTGCAG | 9040 fluorescence intensity (a.u.)
33 | TTGTGTGTGCGTTTGTGATTGCGTCGGTCGGTTTCAGTTCCGGAGTCACCTAGTGCAG | 17500 fluorescence intensity (a.u.)
34 | GCGTGTTGAGTCGGATCGAGGTTTGCGTTTGTGTTCGTTTCGGAGTCACCTAGTGCAG | 8760 fluorescence intensity (a.u.)
35 | GAGGAGCTCGCCAATTGTTCCGCGTCATATCGCCAGCTCTCGGAGTCACCTAGTGCAG | 9060 fluorescence intensity (a.u.)
36 | CATCCCTGACTTTTTTTTTAAATTTTCCGTTTCTCCTTTTCGGAGTCACCTAGTGCAG | 9550 fluorescence intensity (a.u.)
37 | ACTGTCCGCATCCTCGTTGCCGCCGTCGTGGCACATCGCGCGGAGTCACCTAGTGCAG | 8660 fluorescence intensity (a.u.)
38 | AACATGTGAAAGTTTCTGTTCTTTTCATCTTCTTGACGACCGGAGTCACCTAGTGCAG | 8470 fluorescence intensity (a.u.)
39 | GAAGTGGTGGTGGGGTGGTAGTAGTAGTTTGGTAATAGTACGGAGTCACCTAGTGCAG | 12100 fluorescence intensity (a.u.)
40 | TAGCAACTGAGGTTTCTCTTGGCCTTTTCATATTGTCATACGGAGTCACCTAGTGCAG | 10300 fluorescence intensity (a.u.)
41 | TGTGGATGATGGTATTTTTTTTCCTTTTTCCTAGTTACGACGGAGTCACCTAGTGCAG | 9100 fluorescence intensity (a.u.)
42 | TTTAGCGGGTTGATGTGACATACTTGTATTAGTTTTTAGGCGGAGTCACCTAGTGCAG | 8560 fluorescence intensity (a.u.)
43 | CTTCAATACCATTTATCTACATATTAGTCTTATTATGTTTCGGAGTCACCTAGTGCAG | 9920 fluorescence intensity (a.u.)
44 | CTTTCTCGTTCTATGTCCGTGTCTCGTGTTCTTGAAGCTCCGGAGTCACCTAGTGCAG | 9040 fluorescence intensity (a.u.)
45 | CCGTTTGAGTTTATTTTTTACATGGTTGGTTCCTGTGAGTCGGAGTCACCTAGTGCAG | 8360 fluorescence intensity (a.u.)
46 | CTTCGCAGTGGGCCCCACATGTCATAGAGCGTGGGTAGGGCGGAGTCACCTAGTGCAG | 8300 fluorescence intensity (a.u.)
47 | GAGGAGGGTGGAGGGGAGGGTGAAGGCAGTTTTGGAGGCGCGGAGTCACCTAGTGCAG | 15500 fluorescence intensity (a.u.)
48 | GCGACAACAACTTCGCATGCATTTGATATTTCTTCTGTAACGGAGTCACCTAGTGCAG | 9270 fluorescence intensity (a.u.)
49 | CCCTGATCACACGTTCCACACCTCGCAGCGCCACCACATCCGGAGTCACCTAGTGCAG | 9260 fluorescence intensity (a.u.)
50 | CCTGGTAGCCATGTACTTTAGTGCCCGTTGGTGGTTTATACGGAGTCACCTAGTGCAG | 8540 fluorescence intensity (a.u.)
51 | GTGCAACTGGCATCTACACTTGTATTATCTGTGCCAGCTCCGGAGTCACCTAGTGCAG | 8220 fluorescence intensity (a.u.)
52 | CAAACTTTCAATTTTTCCGTCACATCGTTTTAATTTATTTCGGAGTCACCTAGTGCAG | 8720 fluorescence intensity (a.u.)
53 | AACACATCACACAAGCAATAGGCATCTCTCTCTTCTTTCTCGGAGTCACCTAGTGCAG | 11400 fluorescence intensity (a.u.)
54 | AATACGTGACCGTCCACCCTTGTACACTGTCCGGACAGACCGGAGTCACCTAGTGCAG | 8100 fluorescence intensity (a.u.)

— publication PMC7819943, “Rice protein-binding microarrays: a tool to detect cis-acting elements near promoter regions in rice”
